Columns and labels:
[1] = solid-phase peptide synthesis
[2] = general procedure: Fmoc solid-phase peptide synthesis; CTC resin; DIC/HOBt; HBTU/HOBt/DIEA for solution steps; details: late stage modification step, run 5
[3] = late stage modification step, run 1

p.Glu-His-Trp-Ser-Tyr-D.Ser(tBu)-Leu-Arg-Pro-Azagly-CONH2
outcome ([1]; late stage modification step): HPLC analysis showed that no goserelin was produced | crude HPLC purity [1, 3]: 20.05% | crude HPLC purity ([1]; late stage modification step, run 2): 6% | crude HPLC purity ([1]; late stage modification step, run 3): 14% | crude HPLC purity ([1]; late stage modification step, run 4): 9% | step yield ([1]; late stage modification step, theoretical yield): 69.7% | difficulty met [1, 3]: HPLC analysis showed that there was almost no goserelin peak | step yield [1, 3]: 7.8% | crude HPLC purity ([1]; whole synthesis, run 1): >13.46% | crude HPLC purity ([1]; whole synthesis, run 2): >1.03% | crude HPLC purity ([1]; whole synthesis, run 3): >25.2% | crude HPLC purity ([1]; whole synthesis, run 4): >23.55% | crude HPLC purity ([1]; whole synthesis, run 5): >23.95% | crude mass ([1]; whole synthesis, scale 0.0003 mole): 0.26 g | crude yield ([1]; whole synthesis, run 1): 37.14% | outcome ([1]; whole synthesis, run 1): peptide was not cleaved from the resin and there was no reaction with semicarbazide | crude yield ([1]; whole synthesis, run 2): 55.71% | outcome ([1]; whole synthesis, run 2): This synthesis was unsuccessful, as HPLC analysis showed no product peak | crude yield ([1]; whole synthesis, run 3): 74.3% | crude yield ([1]; whole synthesis, run 4): 62.86% | crude HPLC purity [2]: >3.16%

— patent US20100311946 (published 2010)
